# Data taken from PubChem BioAssay (EPA / NIEHS).
# Protein sequences, listed by entry. Tags and fused reporters are not part of them. Lines headed by an entry give the natural chain unless they say otherwise; changes in a name come on top.
# UniProt P10275: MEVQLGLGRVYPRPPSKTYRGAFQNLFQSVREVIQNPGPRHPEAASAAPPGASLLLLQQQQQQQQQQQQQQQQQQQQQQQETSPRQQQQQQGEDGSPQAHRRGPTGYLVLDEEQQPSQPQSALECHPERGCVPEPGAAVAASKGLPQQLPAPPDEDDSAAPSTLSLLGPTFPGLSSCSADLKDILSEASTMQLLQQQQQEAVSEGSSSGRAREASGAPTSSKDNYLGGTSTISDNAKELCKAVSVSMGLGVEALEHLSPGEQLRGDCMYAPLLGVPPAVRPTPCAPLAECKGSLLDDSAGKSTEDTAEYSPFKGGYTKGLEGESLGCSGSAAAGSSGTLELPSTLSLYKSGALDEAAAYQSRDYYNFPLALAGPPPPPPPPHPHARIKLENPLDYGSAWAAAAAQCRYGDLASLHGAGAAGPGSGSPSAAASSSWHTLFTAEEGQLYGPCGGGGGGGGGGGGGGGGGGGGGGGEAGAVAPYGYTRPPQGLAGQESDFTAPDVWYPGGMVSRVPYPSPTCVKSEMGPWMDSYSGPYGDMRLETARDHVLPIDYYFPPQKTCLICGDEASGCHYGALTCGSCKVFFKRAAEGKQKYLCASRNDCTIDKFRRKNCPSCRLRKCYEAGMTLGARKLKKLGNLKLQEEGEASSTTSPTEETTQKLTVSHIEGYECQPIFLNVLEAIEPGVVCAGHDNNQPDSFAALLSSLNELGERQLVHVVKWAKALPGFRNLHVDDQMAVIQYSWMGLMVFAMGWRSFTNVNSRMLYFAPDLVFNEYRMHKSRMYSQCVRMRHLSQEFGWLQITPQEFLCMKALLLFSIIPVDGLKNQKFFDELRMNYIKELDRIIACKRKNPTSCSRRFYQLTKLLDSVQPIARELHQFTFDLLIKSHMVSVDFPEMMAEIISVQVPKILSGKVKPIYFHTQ
# UniProt Q96RI1: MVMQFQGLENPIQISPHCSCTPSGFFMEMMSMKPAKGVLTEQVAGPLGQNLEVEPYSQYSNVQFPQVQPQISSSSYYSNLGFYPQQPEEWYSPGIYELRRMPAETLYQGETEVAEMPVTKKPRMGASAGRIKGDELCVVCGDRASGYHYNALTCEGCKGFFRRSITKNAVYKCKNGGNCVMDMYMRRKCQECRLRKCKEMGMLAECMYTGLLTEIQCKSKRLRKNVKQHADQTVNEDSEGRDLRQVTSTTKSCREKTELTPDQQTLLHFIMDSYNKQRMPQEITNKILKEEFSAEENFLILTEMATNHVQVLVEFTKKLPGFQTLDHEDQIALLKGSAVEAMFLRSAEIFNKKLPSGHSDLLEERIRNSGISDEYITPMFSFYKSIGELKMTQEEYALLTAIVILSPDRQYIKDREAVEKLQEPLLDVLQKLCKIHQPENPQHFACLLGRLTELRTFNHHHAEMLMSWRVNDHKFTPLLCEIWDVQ
# UniProt P04150: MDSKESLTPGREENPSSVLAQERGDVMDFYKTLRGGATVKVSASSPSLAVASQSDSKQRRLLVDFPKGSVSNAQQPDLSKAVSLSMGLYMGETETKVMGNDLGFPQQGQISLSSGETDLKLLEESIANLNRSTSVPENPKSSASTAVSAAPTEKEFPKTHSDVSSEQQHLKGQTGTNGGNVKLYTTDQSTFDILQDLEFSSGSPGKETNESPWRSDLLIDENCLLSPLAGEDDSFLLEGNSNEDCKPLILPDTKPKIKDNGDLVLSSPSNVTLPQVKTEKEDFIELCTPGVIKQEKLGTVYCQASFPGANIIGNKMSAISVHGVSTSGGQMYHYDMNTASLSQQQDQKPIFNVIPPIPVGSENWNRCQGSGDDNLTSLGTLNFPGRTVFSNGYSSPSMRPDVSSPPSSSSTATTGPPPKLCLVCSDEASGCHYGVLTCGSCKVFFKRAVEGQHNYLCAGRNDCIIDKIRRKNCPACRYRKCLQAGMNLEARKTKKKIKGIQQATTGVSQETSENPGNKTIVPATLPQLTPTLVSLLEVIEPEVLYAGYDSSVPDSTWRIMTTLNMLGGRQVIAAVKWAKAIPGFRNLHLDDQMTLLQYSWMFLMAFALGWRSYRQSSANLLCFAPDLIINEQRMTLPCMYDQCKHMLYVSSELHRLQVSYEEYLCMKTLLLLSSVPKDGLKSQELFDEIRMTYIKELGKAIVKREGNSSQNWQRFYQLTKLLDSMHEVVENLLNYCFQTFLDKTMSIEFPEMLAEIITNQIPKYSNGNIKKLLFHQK
# UniProt P11473: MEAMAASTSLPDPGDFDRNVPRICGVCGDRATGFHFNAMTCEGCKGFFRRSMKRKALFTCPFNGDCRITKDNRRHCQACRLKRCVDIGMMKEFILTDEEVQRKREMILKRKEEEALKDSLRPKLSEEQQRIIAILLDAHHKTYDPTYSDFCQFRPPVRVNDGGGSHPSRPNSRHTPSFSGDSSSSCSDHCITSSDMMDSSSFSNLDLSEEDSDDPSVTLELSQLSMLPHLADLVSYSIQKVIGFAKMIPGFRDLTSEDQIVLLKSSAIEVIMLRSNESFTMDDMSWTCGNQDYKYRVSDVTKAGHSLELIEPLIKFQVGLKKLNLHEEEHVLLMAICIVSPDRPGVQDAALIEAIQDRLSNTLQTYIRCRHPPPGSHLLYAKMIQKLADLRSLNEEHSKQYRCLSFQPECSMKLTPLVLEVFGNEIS
# UniProt Q03181: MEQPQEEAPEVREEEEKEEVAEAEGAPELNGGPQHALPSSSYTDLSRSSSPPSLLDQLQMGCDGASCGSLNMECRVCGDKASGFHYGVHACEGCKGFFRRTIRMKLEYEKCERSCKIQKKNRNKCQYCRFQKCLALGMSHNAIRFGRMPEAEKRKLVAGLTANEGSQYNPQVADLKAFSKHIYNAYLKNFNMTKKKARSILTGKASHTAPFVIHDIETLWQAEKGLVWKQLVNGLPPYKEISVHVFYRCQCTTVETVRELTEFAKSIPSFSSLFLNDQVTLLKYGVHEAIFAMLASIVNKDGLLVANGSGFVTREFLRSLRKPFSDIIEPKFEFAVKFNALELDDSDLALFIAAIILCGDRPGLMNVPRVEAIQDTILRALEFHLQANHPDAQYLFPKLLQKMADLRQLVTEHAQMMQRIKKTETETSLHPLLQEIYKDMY
# UniProt P37231: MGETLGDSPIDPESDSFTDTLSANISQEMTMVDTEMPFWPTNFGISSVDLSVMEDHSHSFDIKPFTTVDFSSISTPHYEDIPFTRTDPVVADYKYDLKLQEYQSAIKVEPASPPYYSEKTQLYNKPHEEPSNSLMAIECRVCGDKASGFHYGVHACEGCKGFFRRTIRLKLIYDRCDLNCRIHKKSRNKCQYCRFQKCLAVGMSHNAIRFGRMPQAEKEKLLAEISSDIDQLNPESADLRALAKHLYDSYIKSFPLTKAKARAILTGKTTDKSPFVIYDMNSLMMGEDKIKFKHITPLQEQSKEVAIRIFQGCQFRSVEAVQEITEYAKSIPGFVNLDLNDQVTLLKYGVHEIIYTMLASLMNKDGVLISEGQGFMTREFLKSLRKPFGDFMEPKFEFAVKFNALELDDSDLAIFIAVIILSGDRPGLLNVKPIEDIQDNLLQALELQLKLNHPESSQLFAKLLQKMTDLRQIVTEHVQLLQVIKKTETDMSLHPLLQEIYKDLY
# UniProt O75469: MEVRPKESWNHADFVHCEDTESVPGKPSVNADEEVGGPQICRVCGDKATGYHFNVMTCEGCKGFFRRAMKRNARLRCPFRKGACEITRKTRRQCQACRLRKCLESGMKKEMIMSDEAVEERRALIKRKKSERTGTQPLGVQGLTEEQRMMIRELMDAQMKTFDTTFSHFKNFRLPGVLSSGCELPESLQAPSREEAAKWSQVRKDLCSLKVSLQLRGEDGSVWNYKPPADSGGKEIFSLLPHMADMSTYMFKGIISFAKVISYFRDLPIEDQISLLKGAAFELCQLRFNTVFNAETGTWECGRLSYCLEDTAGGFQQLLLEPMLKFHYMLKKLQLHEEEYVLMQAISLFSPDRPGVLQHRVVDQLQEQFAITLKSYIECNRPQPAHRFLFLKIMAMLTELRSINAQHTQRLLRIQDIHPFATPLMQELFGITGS
# UniProt P19793: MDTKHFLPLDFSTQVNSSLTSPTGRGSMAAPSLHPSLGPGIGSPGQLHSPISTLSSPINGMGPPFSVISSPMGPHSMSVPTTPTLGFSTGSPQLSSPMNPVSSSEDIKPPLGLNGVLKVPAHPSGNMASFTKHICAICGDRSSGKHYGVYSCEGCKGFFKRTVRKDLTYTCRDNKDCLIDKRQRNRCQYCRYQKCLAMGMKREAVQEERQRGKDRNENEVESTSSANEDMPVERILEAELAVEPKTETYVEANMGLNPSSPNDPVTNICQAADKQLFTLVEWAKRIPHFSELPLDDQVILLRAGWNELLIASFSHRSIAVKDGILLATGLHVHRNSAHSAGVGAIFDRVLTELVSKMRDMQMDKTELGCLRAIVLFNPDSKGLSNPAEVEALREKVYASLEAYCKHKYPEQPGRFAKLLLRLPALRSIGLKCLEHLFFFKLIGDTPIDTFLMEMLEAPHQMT
# UniProt P04637, whole entry, looked up: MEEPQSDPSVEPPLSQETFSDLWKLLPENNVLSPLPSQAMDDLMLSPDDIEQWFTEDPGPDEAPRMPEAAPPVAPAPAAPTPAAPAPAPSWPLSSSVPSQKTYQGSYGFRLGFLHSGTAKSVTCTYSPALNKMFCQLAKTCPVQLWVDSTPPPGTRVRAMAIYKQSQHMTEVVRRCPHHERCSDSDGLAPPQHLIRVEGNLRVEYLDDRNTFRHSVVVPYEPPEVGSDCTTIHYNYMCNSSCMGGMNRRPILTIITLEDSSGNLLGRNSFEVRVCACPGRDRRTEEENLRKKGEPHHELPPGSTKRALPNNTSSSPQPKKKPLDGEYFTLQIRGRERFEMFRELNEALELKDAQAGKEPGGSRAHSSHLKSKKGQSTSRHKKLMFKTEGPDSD
# The inconclusive results got no clear call from the source; some entries with a clear call stand among them for comparison. For some of these results: Where the call is inconclusive, the potency comes from a doubtful curve fit. Calls of active or inactive are those of the source. The calls were made as follows: active = hit-call score of the fitted dose curve at least 0.9, where 1 is the maximum; inconclusive = response in the unintended direction; inactive = score below 0.9.
# Legend:
# [1] = biological target: Androgen receptor (Homo sapiens) (UniProt P10275); assay: ATG_AR_TRANS: Attagene TRANS-FACTORIAL HepG2 Assay for human Androgen Receptor (AR) (AID 2282973); details: HepG2 Attagene TRANS-FACTORIAL AR reporter transcription
# Method in brief: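 Readout is reporter transcript abundance, quantified by fluorescent RT-PCR products separated on capillary electrophoresis. Human HepG2 liver cells carried transiently transfected NR-Gal4 chimera plus GAL4-UAS reporter constructs and were dosed for 24 h; activity scored upward versus DMSO.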
# [2] = biological target: Bile acid receptor (Homo sapiens) (UniProt Q96RI1); assay: ATG_FXR_TRANS: Attagene TRANS-FACTORIAL HepG2 Assay for Farnesoid X Receptor (FXR) (AID 2282979); details: HepG2 Attagene TRANS FXR-GAL4 reporter transcription;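 also: hits raise reporter mRNA above DMSO so AC50 marks FXR activation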
# Method in brief: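 Read-out: fluorescent reporter transcripts quantified by capillary electrophoresis after RT-PCR of total RNA. Source cells were HepG2 transiently carrying chimeric NR-GAL4 plus GAL4-UAS reporter units, dosed 24 h. Activity fitted upward relative to DMSO baseline.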
# [3] = ACEA_ER_AUC_viability: ACEA Biosciences xCELLigence Real-Time Cell Analysis on Estrogen Receptor Agonism for Viability (AID 2283782);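 also: hit means loss of impedance signal meaning reduced cell growth or viability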
# Method in brief: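 Continuous-exposure impedance cell analysis uses T-47D cells in charcoal-stripped serum, eight 1:4 dilutions topping at 100 uM final, biological duplicate. Area under the growth curve at 80 h is fitted against DMSO baseline.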
# [4] = biological target: Glucocorticoid receptor (Homo sapiens) (UniProt P04150); assay: ATG_GR_TRANS: Attagene TRANS-FACTORIAL HepG2 Assay for human Glucocorticoid Receptor (GR) (AID 2282978); details: HepG2 Attagene TRANS GR reporter, mRNA transcription;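 also: activators score as hits since higher reporter transcript over DMSO is fitted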
# Method in brief: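 Exogenous NR-GAL4 fusion activity was assessed through induced GAL4-UAS reporter transcripts in transfected human HepG2 cells, quantified after 24 h by RT-PCR and fluorescent capillary electrophoresis with DMSO as baseline.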
# [5] = biological target: human Vitamin D Receptor (VDR), VDR (gene 7421) (UniProt P11473); assay: ATG_VDR_TRANS: Attagene TRANS-FACTORIAL HepG2 Assay for human Vitamin D Receptor (VDR) (AID 2283022)
# Method in brief: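 RT-PCR/capillary electrophoresis read-out of reporter mRNA induction in transiently transfected HepG2; 24 h dosing; chimeric NR-Gal4 (TRANS format); gain-of-signal fit against DMSO baseline.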
# [6] = ATG_M_06_TRANS: Attagene TRANS-FACTORIAL HepG2 Assay for M06 Transcription Factor (Internal Marker) (AID 2282983); details: HepG2 Attagene TRANS M06 internal marker reporter;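 as to AC50: potency for rise in reporter mRNA above DMSO baseline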;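 as to outcome: reporter transcript level by RT-PCR then capillary electrophoresis fluorescence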
# Method in brief: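 Read-out: fluorescent reporter cDNA fragments resolved by capillary electrophoresis after RT-PCR and HpaI cut. Source cells were HepG2 carrying transfected multi-reporter GAL4 constructs, dosed 24 h. Increase over DMSO control analysed.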
# [7] = CCTE_Harrill_HTTr_CellCount_MCF7: CCTE's Cell Proliferation Assessment for the High-Throughput Transcriptomics (HTTr) Platform, Harrill Lab (AID 2284012);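 also: count of Hoechst-stained nuclei per well by high-content imaging in MCF-7 cells; cells exposed to compound for six hours; intended direction is loss of nuclei count meaning fewer cells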
# Method in brief: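 Readout: Hoechst nuclear count by high-content imaging. MCF-7, 8-point dilution series, 6 h exposure. Bidirectional fit vs DMSO baseline.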
# [8] = biological target: human Peroxisome Proliferator-activated Receptor delta (PPARd), PPARD (gene 5467) (UniProt Q03181); assay: ATG_PPARd_TRANS: Attagene TRANS-FACTORIAL HepG2 Assay for human Peroxisome Proliferator-activated Receptor delta (PPARd) (AID 2283002)
# Method in brief: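 Measured quantity: GAL4-UAS reporter transcript induction in HepG2 after 24 h chemical dosing, with NR-Gal4 chimeras supplied by transient transfection. Detection by RT-PCR and capillary electrophoresis; upward fit against DMSO.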
# [9] = biological target: Peroxisome proliferator-activated receptor gamma (Homo sapiens) (UniProt P37231); assay: ATG_PPARg_TRANS: Attagene TRANS-FACTORIAL HepG2 Assay for human Peroxisome Proliferator-activated Receptor-gamma (PPARg) (AID 2283007)
# Method in brief: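 Endpoint reflects upward reporter mRNA change versus DMSO controls. Setup: transiently transfected HepG2, GAL4-UAS reporters driven by chimeric NR-Gal4, 24 h incubation, RT-PCR with capillary electrophoresis read-out.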
# [10] = biological target: Nuclear receptor subfamily 1 group I member 2 (Homo sapiens) (UniProt O75469); assay: ATG_PXR_TRANS: Attagene TRANS-FACTORIAL HepG2 Assay for human Pregnane X Receptor (PXR) (AID 2283008)
# Method in brief: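 Transient HepG2 transfectants carrying multiplexed reporter transcription units; PXR activity read through a Gal4 chimera. 24 h exposure. RT-PCR/CE fluorescence; upward curve fit referenced to DMSO.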
# [11] = biological target: Retinoic acid receptor RXR-alpha (Homo sapiens) (UniProt P19793); assay: OT_NURR1_NURR1RXRa_0480: Odyssey Thera (OT) 8-hour HEK293T Protein Complementation Assay for Nurr1/retinoid X receptor (RXR) (AID 2283385)
# Method in brief: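 Read-out: fluorescence from protein-fragment complementation between Nurr1 and RXRα in human HEK293T cells, 8 h after dosing. DMSO served as negative control; increased signal counted as activity.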
# [12] = biological target: Cellular tumor antigen p53 (Homo sapiens) (UniProt P04637); assay: TOX21_p53_BLA_p3_ratio: Tox21 HCT-116 p53 Agonism Beta-lactamase Assay, Ratio, Phase 3 (AID 2283596)
# Method in brief: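 Cells were seeded at 4000/well, rested 5 h at 37C, then dosed with DMSO compound solutions (217-fold dilution) for 16 h. CCF4-AM substrate was loaded for 2 h at room temperature, and the 460/530 nm emission ratio was fitted for gain of signal versus DMSO.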
# [13] = TOX21_p53_BLA_p4_viability: Viability Assessment in the Tox21 HCT-116 p53 Agonism Beta-lactamase Assay, Phase 4 (AID 2283597);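 also: hits lower the luminescence signal meaning cytotoxicity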
# Method in brief: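 ATP content by CellTiter-Glo luminescence, 30 min RT, read after the beta-lactamase ratio step. Cells: HCT116, 4000/well, compound added after 5 h, exposure 16 h at 37C. Signal loss = reduced viability.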
# [14] = TOX21_p53_BLA_p5_viability: Viability Assessment in the Tox21 HCT-116 p53 Agonism Beta-lactamase Assay, Phase 5 (AID 2283600)
# Method in brief: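 ATP luminescence (CellTiter-Glo, 30 min, RT) served as the viability read-out, with loss of signal indicating cytotoxicity. Compounds in DMSO were pinned at a 217-fold dilution onto 4000 cells/well and incubated 16 h, 37C.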
# [15] = biological target: Cellular tumor antigen p53 (Homo sapiens) (UniProt P04637); assay: TOX21_p53_BLA_p4_ratio: Tox21 HCT-116 p53 Agonism Beta-lactamase Assay, Ratio, Phase 4 (AID 2283601)
# Method in brief: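 HCT116 cells carrying an inducible beta-lactamase reporter were plated at 4000 cells/well, rested 5 h, then exposed to compounds in DMSO (217-fold dilution) for 16 h at 37C. CCF4-AM substrate was loaded 2 h at room temperature; 460/530 nm emission ratio scored gain-of-signal versus DMSO.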
# [16] = ACEA_AR_agonist_AUC_viability: ACEA Biosciences xCELLigence Real-Time Cell Analysis on Androgen Receptor Agonism for Viability (AID 2283775);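 as to AC50: viability read 80 hours after compound addition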
# Method in brief: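 Viability endpoint from xCELLigence impedance in 22Rv1 prostate cells at 80 h. Eight-point series, 100 uM maximum final.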
# [17] = biological target: Cellular tumor antigen p53 (Homo sapiens) (UniProt P04637); assay: TOX21_p53_BLA_p2_ratio: Tox21 HCT-116 p53 Agonism Beta-lactamase Assay, Ratio, Phase 2 (AID 2283592)
# Method in brief: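 Readout: blue/green (460/530 nm) FRET emission ratio after 2 h CCF4-AM loading at room temperature, excitation 405 nm. HCT116 p53 bla cells, 16 h compound exposure at 37C, 5% CO2; agonist direction fitted against DMSO baseline.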
# [18] = biological target: Cellular tumor antigen p53 (Homo sapiens) (UniProt P04637); assay: TOX21_p53_BLA_p5_ratio: Tox21 HCT-116 p53 Agonism Beta-lactamase Assay, Ratio, Phase 5 (AID 2283599)
# Method in brief: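 HCT-116 cells carrying a p53-inducible beta-lactamase reporter were seeded at 4000 cells/well and dosed after 5 h with compound in DMSO (217-fold dilution). After 16 h at 37C, CCF4-AM substrate was added for 2 h, and the 460/530 nm emission ratio was scored as gain-of-signal versus DMSO.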
smiles,measurement,setting,value
O=C(O)C(F)(F)C(F)(F)C(F)(F)C(F)(F)C(F)(F)C(F)(F)C(F)(F)C(F)(F)C(F)(F)C(F)(F)C(F)(F)C(F)(F)F,AC50,[1],inconclusive: 100 µM
same,outcome,[2],inactive
same,AC50,[3],active: 19.3 µM
CCCCCCCCSCc1cc(C)c(O)c(CSCCCCCCCC)c1,AC50,[1],inconclusive: 7.49 µM
same,AC50,[4],inconclusive: 100 µM
same,outcome,[2],inactive
CCCCCCCOC(=O)c1ccccc1C(=O)OCCCCCCC,AC50,[4],inconclusive: 100 µM
same,outcome,[2],inactive
same,outcome,[6],inactive
same,AC50,[5],inconclusive: 100 µM
same,outcome,[7],inactive
O=C(F)C(F)(F)C(F)(F)C(F)(F)C(=O)F,AC50,[1],inconclusive: 150 µM
same,AC50,[4],inconclusive: 150 µM
same,AC50,[2],inconclusive: 150 µM
same,AC50,[8],inconclusive: 0.186 µM
same,AC50,[9],inconclusive: 150 µM
CCCCOCC,AC50,[1],inconclusive: 100 µM
same,AC50,[4],inconclusive: 100 µM
same,AC50,[2],inconclusive: 0.0823 µM
same,AC50,[6],inconclusive: 0.211 µM
same,AC50,[10],inconclusive: 0.223 µM
same,outcome,[3],inactive
O=C1CCC(=O)N1,outcome,[1],inactive
same,outcome,[4],inactive
same,AC50,[9],inconclusive: 52.7 µM
same,AC50,[5],inconclusive: 0.294 µM
CC(C)(C)c1cccc(O)c1,AC50,[1],inconclusive: 0.224 µM
same,outcome,[9],inactive
same,outcome,[5],inactive
same,outcome,[11],inactive
same,outcome,[12],inactive
same,AC50,[13],inconclusive: 46.1 µM
same,outcome,[14],inactive
same,outcome,[15],inactive
same,outcome,[16],inactive
same,AC50,[3],inconclusive: 12 µM
CCCCCCOC(=O)c1ccccc1O,outcome,[1],inactive
same,outcome,[8],inactive
same,outcome,[9],inactive
same,outcome,[17],inactive
same,outcome,[12],inactive
same,outcome,[13],inactive
same,outcome,[18],inactive
same,AC50,[15],inconclusive: 46.1 µM
same,outcome,[3],inactive
Cc1cc(NC(=O)C(=O)O)cc(C)c1Oc1ccc(O)c2c1CCC2,outcome,[1],inactive
same,outcome,[2],inactive
same,AC50,[11],inconclusive: 50 µM
same,AC50,[13],inconclusive: 46.1 µM
same,AC50,[16],inconclusive: 2.73 µM
same,AC50,[3],inconclusive: 9.92 µM
same,AC50,[7],inconclusive: 50 µM

# A different layout for part of the listing above:
smiles	measurement	setting	value
O=C(O)C(F)(F)C(F)(F)C(F)(F)C(F)(F)C(F)(F)C(F)(F)C(F)(F)C(F)(F)C(F)(F)C(F)(F)C(F)(F)C(F)(F)F	outcome	[2]	inactive
CCCCCCCCSCc1cc(C)c(O)c(CSCCCCCCCC)c1	AC50	[4]	inconclusive: 100 µM
same	outcome	[2]	inactive
CCCCCCCOC(=O)c1ccccc1C(=O)OCCCCCCC	AC50	[4]	inconclusive: 100 µM
same	AC50	[5]	inconclusive: 100 µM
same	outcome	[7]	inactive
O=C(F)C(F)(F)C(F)(F)C(F)(F)C(=O)F	AC50	[4]	inconclusive: 150 µM
CCCCOCC	outcome	[3]	inactive
CC(C)(C)c1cccc(O)c1	outcome	[5]	inactive
same	outcome	[11]	inactive
same	outcome	[14]	inactive
same	outcome	[15]	inactive
same	outcome	[16]	inactive
CCCCCCOC(=O)c1ccccc1O	outcome	[17]	inactive
Cc1cc(NC(=O)C(=O)O)cc(C)c1Oc1ccc(O)c2c1CCC2	outcome	[1]	inactive
